Data as given in publication PMC12135451.
Results are given in words; binding and its absence hold for the method and conditions named. In cells and extracts the contact can be indirect. Some entries that bind do so weakly or less than the wild type. For some assays here: Tags and fused reporters may be left off the sequences shown.

Chains of the proteins cited; added tags and fusions are not shown.
UniProt Q96EP0: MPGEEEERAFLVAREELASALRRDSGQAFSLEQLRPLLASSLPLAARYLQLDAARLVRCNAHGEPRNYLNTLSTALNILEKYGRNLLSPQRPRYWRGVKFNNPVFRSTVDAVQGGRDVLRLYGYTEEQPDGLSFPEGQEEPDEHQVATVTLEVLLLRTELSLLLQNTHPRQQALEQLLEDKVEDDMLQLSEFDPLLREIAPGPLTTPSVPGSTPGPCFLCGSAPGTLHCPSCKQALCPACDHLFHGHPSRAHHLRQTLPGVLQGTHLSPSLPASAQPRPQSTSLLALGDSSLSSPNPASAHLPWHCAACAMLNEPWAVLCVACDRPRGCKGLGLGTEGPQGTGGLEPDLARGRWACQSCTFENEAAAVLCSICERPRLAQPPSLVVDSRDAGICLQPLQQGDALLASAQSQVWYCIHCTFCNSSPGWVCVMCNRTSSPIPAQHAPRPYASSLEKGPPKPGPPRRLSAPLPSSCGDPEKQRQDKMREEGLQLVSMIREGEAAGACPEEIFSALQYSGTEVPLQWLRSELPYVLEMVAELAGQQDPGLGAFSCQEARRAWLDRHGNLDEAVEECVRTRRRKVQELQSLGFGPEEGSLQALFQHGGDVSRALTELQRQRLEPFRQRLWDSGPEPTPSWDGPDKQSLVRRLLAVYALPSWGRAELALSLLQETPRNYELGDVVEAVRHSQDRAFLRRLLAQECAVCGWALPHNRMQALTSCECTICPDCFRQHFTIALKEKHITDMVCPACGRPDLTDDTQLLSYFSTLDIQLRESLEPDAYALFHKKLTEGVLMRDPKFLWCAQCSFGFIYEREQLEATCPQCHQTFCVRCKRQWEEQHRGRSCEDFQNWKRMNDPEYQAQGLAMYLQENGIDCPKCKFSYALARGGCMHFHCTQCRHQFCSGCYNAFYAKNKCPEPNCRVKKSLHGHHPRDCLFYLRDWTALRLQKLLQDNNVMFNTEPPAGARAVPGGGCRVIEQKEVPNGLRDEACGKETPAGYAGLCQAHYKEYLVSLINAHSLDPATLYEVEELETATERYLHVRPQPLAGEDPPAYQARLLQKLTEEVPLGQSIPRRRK
UniProt O60566: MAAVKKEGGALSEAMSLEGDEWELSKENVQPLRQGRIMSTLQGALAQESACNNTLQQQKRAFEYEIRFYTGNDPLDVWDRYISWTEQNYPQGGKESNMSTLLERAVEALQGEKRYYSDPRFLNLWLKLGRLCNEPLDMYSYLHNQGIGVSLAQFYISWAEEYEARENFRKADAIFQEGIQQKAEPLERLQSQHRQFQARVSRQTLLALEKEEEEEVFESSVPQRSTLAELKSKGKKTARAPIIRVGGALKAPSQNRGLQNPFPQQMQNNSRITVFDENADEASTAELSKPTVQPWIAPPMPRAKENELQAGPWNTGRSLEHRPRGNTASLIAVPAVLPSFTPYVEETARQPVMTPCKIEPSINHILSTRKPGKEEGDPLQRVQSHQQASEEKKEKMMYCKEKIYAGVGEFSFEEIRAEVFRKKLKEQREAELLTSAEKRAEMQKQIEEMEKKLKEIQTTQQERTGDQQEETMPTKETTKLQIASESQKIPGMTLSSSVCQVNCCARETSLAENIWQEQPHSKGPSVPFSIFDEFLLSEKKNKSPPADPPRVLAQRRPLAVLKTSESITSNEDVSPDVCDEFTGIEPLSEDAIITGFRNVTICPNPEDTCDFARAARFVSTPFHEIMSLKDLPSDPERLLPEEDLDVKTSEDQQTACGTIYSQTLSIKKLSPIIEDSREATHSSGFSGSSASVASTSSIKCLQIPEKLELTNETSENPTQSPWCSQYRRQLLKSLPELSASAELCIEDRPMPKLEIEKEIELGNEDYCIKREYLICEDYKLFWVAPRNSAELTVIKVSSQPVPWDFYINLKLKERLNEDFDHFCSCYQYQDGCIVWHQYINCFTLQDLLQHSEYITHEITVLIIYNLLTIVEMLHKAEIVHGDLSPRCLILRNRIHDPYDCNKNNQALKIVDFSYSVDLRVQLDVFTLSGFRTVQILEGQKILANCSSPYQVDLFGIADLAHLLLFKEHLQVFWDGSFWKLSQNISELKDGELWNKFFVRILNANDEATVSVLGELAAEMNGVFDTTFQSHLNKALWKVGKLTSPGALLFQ
UniProt Q12834: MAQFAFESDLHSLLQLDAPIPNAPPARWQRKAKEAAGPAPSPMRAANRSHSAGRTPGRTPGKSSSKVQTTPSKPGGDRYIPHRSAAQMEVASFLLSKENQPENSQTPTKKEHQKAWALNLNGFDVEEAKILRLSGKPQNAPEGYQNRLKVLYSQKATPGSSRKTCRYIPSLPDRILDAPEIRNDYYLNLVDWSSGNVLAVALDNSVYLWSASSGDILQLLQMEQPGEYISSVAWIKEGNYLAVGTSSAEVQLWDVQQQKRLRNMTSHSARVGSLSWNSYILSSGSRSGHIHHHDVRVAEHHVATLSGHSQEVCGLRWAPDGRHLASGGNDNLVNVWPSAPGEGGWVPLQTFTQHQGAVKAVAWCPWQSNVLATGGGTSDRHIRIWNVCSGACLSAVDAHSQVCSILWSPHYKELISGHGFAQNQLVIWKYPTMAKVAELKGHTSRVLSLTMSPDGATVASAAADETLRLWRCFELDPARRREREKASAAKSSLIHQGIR
UniProt Q13257: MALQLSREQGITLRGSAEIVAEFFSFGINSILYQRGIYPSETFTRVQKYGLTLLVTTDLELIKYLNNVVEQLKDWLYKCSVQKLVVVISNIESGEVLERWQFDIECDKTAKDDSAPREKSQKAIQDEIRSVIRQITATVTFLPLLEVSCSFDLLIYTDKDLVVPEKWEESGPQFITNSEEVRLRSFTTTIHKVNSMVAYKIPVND
UniProt P53350: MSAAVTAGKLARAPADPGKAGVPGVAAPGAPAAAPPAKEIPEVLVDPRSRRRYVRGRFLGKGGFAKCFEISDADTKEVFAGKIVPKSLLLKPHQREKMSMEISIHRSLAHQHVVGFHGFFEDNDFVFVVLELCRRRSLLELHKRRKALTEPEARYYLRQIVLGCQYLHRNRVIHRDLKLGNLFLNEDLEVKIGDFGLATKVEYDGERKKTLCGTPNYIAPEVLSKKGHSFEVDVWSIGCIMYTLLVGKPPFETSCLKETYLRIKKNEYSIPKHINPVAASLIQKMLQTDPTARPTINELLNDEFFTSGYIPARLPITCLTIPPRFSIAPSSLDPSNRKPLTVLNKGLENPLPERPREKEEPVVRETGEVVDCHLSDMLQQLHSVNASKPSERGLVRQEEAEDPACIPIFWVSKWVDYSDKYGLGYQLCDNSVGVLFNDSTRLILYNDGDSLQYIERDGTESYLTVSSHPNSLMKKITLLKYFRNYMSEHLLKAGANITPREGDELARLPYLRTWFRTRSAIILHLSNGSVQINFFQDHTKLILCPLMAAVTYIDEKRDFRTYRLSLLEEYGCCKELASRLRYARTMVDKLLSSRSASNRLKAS

Legend:
[1] = biological target: T1, GST-p31^comet (human) (UniProt Q15013); assay: pull-down; agarose-bound GST-p31 incubated with Flag-HOIP-expressing 293T lysates (the legend says immunopurified Flag-HOIP), 4 °C, 3-4 h, washed with NETN buffer; immunoblot; only the target purified
T1 sequence: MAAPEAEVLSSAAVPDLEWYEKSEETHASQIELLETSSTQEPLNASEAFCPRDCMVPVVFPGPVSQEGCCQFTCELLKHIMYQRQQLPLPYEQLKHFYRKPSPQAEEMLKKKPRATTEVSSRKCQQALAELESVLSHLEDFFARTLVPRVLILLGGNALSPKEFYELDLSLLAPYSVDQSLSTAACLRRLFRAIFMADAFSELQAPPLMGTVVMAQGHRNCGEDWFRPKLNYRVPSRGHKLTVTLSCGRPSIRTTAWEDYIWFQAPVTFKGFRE

[2] = biological target: Flag-HOIP (human) (UniProt Q96EP0); assay: co-IP; asynchronous 293T cells transfected with Flag- and HA-tagged constructs; anti-Flag and/or anti-HA IP; lysis in EBC buffer (50 mM Tris pH 7.5, 120 mM NaCl, 0.5% NP-40), four washes with NETN buffer; immunoblot
[3] = biological target: T2, HA-p31 in HeLa/HA-p31 cells (human) (UniProt Q15013); assay: co-IP; nocodazole arrested (300 nM, 16 h) mitotic HeLa/HA-p31 cells, with or without 50 ng/ml TNFα for 10 min; anti-HA IP; immunoblot
T2 sequence: T1 sequence

| Substance | binding [2] | other results |
| --- | --- | --- |
| Flag-HOIP (from UniProt Q96EP0 1-1072) (enzyme) | – | binding [1]: binds |
| HA-BUBR1 (from UniProt O60566 1-1050) | no binding | – |
| HA-Cdc20 (from UniProt Q12834 1-499) | no binding | – |
| HA-MAD2 (from UniProt Q13257 1-205) | no binding | – |
| PLK1 in HeLa/HA-p31 cells (from UniProt P53350 1-603) (enzyme) | – | binding [3]: binds |
